Source: PubChem BioAssay AID1224828 (NIAID, 2016)

- Aim: 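Find genes required for NF-kappaB p65 moving into the nucleus after LPS in mouse macrophages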 (primary screen)
- Cell system: mouse RAW264.7 G9 macrophage reporter cells (GFP-p65, Tnf promoter-mCherry)
- Reagents: siRNA pool against mouse genes, 100 nM
- Time to read-out: 2 days siRNA transfection, then 40 min LPS before fixation
- Challenge: LPS (Salmonella minnesota R595) at 10 ng/ml
- Measurement: 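Imaged p65 nuclear translocation ratio, normalised to the plate median, converted to robust z-scores and averaged across two replicates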
- Direction: p65 translocation robust z-score: higher = more nuclear NF-kappaB p65 after LPS than the plate median; nuclear/cytoplasmic p65 ratio: higher = more nuclear NF-kappaB p65
- Hit rule: 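Called active when z exceeds 3.3 or falls under -1.56 (median of Tlr4 controls), giving activity score of at least 50; no calls for control wells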
- Calls: active = hit (p65 shift raised or lowered); inactive = no clear change
Shown is one part, drawn at random, of about 17,000 deposited reagents. 762 of them (4.5%) were called active. 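Active calls include both raised and lowered p65 entry, mostly lowered; wells with fewer than 50 cells lack a z-score.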 Raw values vary from plate to plate and are shown uncorrected. Unmarked entries are inactive. Reagents against one gene are numbered here.

target,pool no.,p65 translocation robust z-score,"nuclear/cytoplasmic p65 ratio, rep 1","nuclear/cytoplasmic p65 ratio, rep 2",low cell count flag
Ifitm1,1,-0.22,1.39,1.36,enough cells to score
Cfap263,1,,1.22,1.17,fewer than 50 cells per well; well left out of scoring
Nppb,1,0.18,1.65,1.63,enough cells to score
Anapc7,1,0.51,1.68,1.71,enough cells to score
Hps6,1,0.2,1.52,1.34,enough cells to score
Ddx56,1,-0.1,1.51,1.58,enough cells to score
Grb7,1,0.25,1.47,1.4,enough cells to score
Zfp462,1,0.79,1.41,1.34,enough cells to score
Tox,1,,1.5,1.18,fewer than 50 cells per well; well left out of scoring
3110009E18Rik,1,,1.32,1.14,fewer than 50 cells per well; well left out of scoring
Gdpd3,1,0.16,1.52,1.53,enough cells to score
Muc4,1,3.8 (active),2.05,2.46,enough cells to score
Muc4,2,0.83,1.14,1.4,enough cells to score
Timmdc1,1,,1.22,1.28,fewer than 50 cells per well; well left out of scoring
Tle4,1,0.04,1.48,1.57,enough cells to score
Mrpl53,1,0.39,1.86,1.64,enough cells to score
H1f3,1,1.58,2.02,1.65,enough cells to score
Psmb4,1,-3.4 (active),0.983,1,enough cells to score
Zfp7,1,0.16,1.57,1.49,enough cells to score
Pebp1,1,-0.28,1.51,1.28,enough cells to score
Mcam,1,-1.05,1.27,1.24,enough cells to score
Fscn1,1,0.77,1.5,1.5,enough cells to score
R3hcc1l,1,1.3,1.69,1.8,enough cells to score
Fam53c,1,,0,1.85,fewer than 50 cells per well; well left out of scoring

Records above marked active:
target,pool no.,p65 translocation robust z-score,"nuclear/cytoplasmic p65 ratio, rep 1","nuclear/cytoplasmic p65 ratio, rep 2",low cell count flag
Muc4,1,3.8 (active),2.05,2.46,enough cells to score
Psmb4,1,-3.4 (active),0.983,1,enough cells to score
